Record: PubChem BioAssay AID743454 (Peter MacCallum Cancer Centre, 2014)

- Test: 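Genes whose loss kills vorinostat-resistant colon cancer cells under vorinostat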 (primary screen)
- System: human HCT116-VR colon cancer cells, selected for vorinostat resistance
- Knock-down reagent: siRNA pool against human genes, 40 nM siRNA pool
- Time to read-out: vorinostat for 24 h, read-out about 72 h after transfection
- Treatment: vorinostat at 2.5 µM final
- Measurement: 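Cell viability by CellTiter-Fluor and caspase 3/7 activity by luminescence, each scaled to mock wells per plate, duplicates averaged, then robust z-scored over all plates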
- Scale: viability robust z-score: higher = more viable cells than screen typical; caspase robust z-score: higher = more caspase 3/7 activity than screen typical
- Rule for the call: 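Hits are knock-downs in viability class RV1/RV2 or caspase class CA1/CA2, excluding ones that killed cells in the no-drug cell-count arm; hits then retested with single siRNAs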
Shown is an unselected part of about 18,000 reagents. 450 of all reagents (2.5%) count as active. 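Single biological run; no consistent viability z cut-off exists, so the class columns, not z-scores, define the calls.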 Entries without a mark were called inactive.

The first 2 records as a preview:
viability hit class | caspase hit class | viability robust z-score | caspase robust z-score | gene knocked down
no change | no change | 0.86 | 0.5 | LAMB1
no change | no change | -1.72 | 0.08 | CFAP95

Main list, from the first entry:
viability hit class | caspase hit class | viability robust z-score | caspase robust z-score | gene knocked down
no change | no change | 0.86 | 0.5 | LAMB1
no change | no change | -1.72 | 0.08 | CFAP95
no change | no change | 0.89 | -0.58 | TP73
no change | no change | -0.18 | -0.5 | PPIC
no change | no change | -1.18 | -0.47 | DNAJA1
no change | no change | 0.65 | -0.53 | PCDHGA4
no change | no change | 0.18 | 0.64 | OR11H1
no change | no change | 0.26 | -0.36 | LGALS14
no change | no change | 0.9 | 0.16 | COPS4
no change | no change | 0.4 | -0.42 | SLC45A2
no change | no change | -0.21 | 1.26 | DPP3
no change | no change | -0.56 | -0.48 | SLC16A6
no change | no change | 0.67 | -0.69 | TRMT61A
no change | no change | 1 | -0.96 | METTL4
no change | no change | 0.76 | -0.16 | SELENOF
no change | no change | 0.82 | 0.13 | PTPRA
no change | no change | 0.2 | -0.01 | ATP11A
no change | no change | 0.68 | 1.9 | MIB2
no change | no change | 0.86 | -0.34 | SHISA6
no change | no change | -0.76 | -0.48 | ENSA
no change | no change | 0.58 | 1.69 | SLC10A4
no change | no change | 0.71 | 0.79 | OR56A4
no change | no change | 0.1 | 1.7 | SDC3
